Laboratory results published in paper PMC12746902, “Pathogenic Gαo Mutants Drive Dominant GPCR Coupling in GNAO1 Encephalopathies” (The FASEB Journal, 2025).
No constants are given. Whether binding was seen depends on the method and setting. In cells and extracts the contact can be indirect. Some results given as binding are weak or reduced against the parent protein; the word gives no strength.

Amino acid sequences for entries named in this document (tags omitted). A change or cut given only in a name is not applied to a line headed by its entry.
UniProt P08172: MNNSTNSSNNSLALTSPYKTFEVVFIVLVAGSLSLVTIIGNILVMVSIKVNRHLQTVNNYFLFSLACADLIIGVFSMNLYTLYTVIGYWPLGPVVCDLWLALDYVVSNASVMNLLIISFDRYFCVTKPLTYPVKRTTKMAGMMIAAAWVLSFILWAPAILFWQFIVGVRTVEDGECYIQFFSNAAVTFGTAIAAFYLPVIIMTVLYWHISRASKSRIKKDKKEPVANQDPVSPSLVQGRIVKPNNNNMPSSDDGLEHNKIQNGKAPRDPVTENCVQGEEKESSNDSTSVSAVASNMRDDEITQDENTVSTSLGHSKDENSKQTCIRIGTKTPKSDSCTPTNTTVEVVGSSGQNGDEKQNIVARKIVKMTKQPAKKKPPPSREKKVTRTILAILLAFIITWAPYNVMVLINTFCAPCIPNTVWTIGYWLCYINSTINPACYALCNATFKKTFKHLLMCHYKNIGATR
UniProt P35372: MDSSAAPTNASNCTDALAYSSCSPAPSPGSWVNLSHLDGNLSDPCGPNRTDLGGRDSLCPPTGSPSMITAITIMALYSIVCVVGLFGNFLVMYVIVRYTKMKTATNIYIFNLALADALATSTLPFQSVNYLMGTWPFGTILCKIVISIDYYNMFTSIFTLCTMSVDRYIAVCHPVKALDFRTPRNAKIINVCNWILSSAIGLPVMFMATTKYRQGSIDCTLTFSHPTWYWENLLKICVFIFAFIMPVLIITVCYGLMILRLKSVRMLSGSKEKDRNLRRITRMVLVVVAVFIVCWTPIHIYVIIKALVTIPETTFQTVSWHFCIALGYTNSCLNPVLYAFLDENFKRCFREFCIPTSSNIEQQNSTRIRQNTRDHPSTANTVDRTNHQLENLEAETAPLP
UniProt P63215: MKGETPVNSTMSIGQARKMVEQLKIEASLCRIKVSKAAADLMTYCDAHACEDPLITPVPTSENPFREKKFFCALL
UniProt P09471: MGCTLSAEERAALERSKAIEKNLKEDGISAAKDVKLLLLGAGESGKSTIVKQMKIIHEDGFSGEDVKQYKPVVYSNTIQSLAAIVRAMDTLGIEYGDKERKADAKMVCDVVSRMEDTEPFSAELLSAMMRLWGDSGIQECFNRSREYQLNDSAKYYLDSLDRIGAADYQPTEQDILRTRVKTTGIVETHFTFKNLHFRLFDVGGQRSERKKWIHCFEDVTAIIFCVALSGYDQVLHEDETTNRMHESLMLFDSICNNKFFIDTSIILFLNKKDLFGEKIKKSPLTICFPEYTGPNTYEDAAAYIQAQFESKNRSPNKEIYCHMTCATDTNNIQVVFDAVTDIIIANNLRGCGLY

Experiments:
[1] = target: M2 muscarinic acetylcholine receptor with C-terminal split-YFP fragment YC (M2R-YC) (UniProt P08172); assay: split reporter; split-YFP BiFC; HEK293T co-transfected with M2R-YC, YN-Gγ3 (bicistronic with Gβ3) and untagged Gαo variants or empty plasmid; fixed cells, confocal microscopy; 100 μM ACh for 7 min
[2] = target: μ-opioid receptor with C-terminal split-YFP fragment YN (MOR-YN) (UniProt P35372); assay: split reporter; split-YFP BiFC; HEK293T co-transfected with GPCR-YN (M2R, MOR or β2AR), Gαo-YC (wild-type, mutants or ins4A) and Gβ3γ9 at 2.5:2.5:1; fixed cells, confocal microscopy; steady state and after agonist (100 μM ACh, 1 μM fentanyl or 10 μM isoproterenol)

Row | binding [1] | binding [2] | Substance
1 | binds | – | Gγ3 with N-terminal split-YFP fragment YN (YN-Gγ3), from the T2A-based bicistronic Gβ3-YN-Gγ3 construct (from UniProt P63215 1-75)
2 | – | binds | Gαo wild-type with internal split-YFP fragment YC at Gly92 (Gαo-YC) (from UniProt P09471 1-354)
